{"source": "PubChem BioAssay AID504793 (Drosophila RNAi Screening Center, 2011)", "purpose": "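Genes required for cells to halt at G2/M after double-strand DNA breaks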 (primary screen)", "cells": "Drosophila S2R+ cells", "reagents": "long dsRNA against Drosophila genes, about 0.25 µg dsRNA per well", "duration": "4 days of dsRNA, then 4 hours of drug before read-out", "challenge": "doxorubicin 0.5 µM for 4 hours to cause double-strand breaks, in cells also given a low, harmless dose of dsRNA against nbs to sensitise the assay", "measurement": "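Per-well count of mitotic cells stained for phospho-histone H3 after doxorubicin exposure, used as mitotic index; counts are raw and not normalised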", "direction": "mitotic cells: higher = more cells in mitosis, weaker G2 arrest", "hit rule": "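Genes are called active only when high mitotic counts were reproduced with independent dsRNAs and mitosis was checked for delay without damage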", "meaning of the calls": "active = confirmed in follow-up tests; inactive = not confirmed", "note": "The screen tested about 23,000 reagents; this is an unselected part of those that have a named target and a result. Over the whole deposit, 62 (0.27%) got an active call. 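Calls come from follow-up tests whose scores are not deposited, so confirmed genes may have low counts here; counts are not normalised per plate.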 Raw values vary from plate to plate and are shown uncorrected. A number with no mark means an inactive call."}
{"predicted target": "Tbc1d15-17 (GeneID 33184)", "amplicon": "DRSC00313", "mitotic cells, replicate 1": 2}
{"predicted target": "Tbc1d15-17 (GeneID 33184)", "amplicon": "DRSC28813", "mitotic cells, replicate 1": 8}
{"predicted target": "Rel (GeneID 41087)", "amplicon": "DRSC16819", "mitotic cells, replicate 1": 6}
{"predicted target": "Lamp1 (GeneID 35411)", "amplicon": "DRSC03727", "mitotic cells, replicate 1": 9}
{"predicted target": "Pex2 (GeneID 38941)", "amplicon": "DRSC10770", "mitotic cells, replicate 1": 1}
{"predicted target": "CG13731 (GeneID 39938)", "amplicon": "DRSC10059", "mitotic cells, replicate 1": 2}
{"predicted target": "CG13731 (GeneID 39938)", "amplicon": "DRSC27584", "mitotic cells, replicate 1": 13}
{"predicted target": "CG30394 (GeneID 37437)", "amplicon": "DRSC04074", "mitotic cells, replicate 1": 3}
{"predicted target": "CG30394 (GeneID 37437)", "amplicon": "DRSC04260", "mitotic cells, replicate 1": 3}
{"predicted target": "drosha (GeneID 35747)", "amplicon": "DRSC07607", "mitotic cells, replicate 1": 13}

Copied from the list.
For “mitotic cells, replicate 1”, drosha (GeneID 35747) [DRSC07607] has 13
Entry for CG13731 (GeneID 39938) [DRSC10059] in “mitotic cells, replicate 1”: 2

The listing continues:
{"predicted target": "Ccz1 (GeneID 38455)", "amplicon": "DRSC08439", "mitotic cells, replicate 1": 3}
{"predicted target": "tou (GeneID 36241)", "amplicon": "DRSC22710", "mitotic cells, replicate 1": 7}
{"predicted target": "tou (GeneID 36241)", "amplicon": "DRSC27228", "mitotic cells, replicate 1": 9}
{"predicted target": "Smg6 (GeneID 42994)", "amplicon": "DRSC16029", "mitotic cells, replicate 1": 10}
{"predicted target": "Smg6 (GeneID 42994)", "amplicon": "DRSC27703", "mitotic cells, replicate 1": 1}
